These are yes or no findings as the source states them, for the method shown. In cells and extracts the contact can be indirect. Some binding calls cover weakened binding; strength is not graded here. For part of these data: Sequences can lack the tags named with a protein.
Key:
[1] = target: full length GST-FAK (human) (UniProt Q05397); experiment: pull-down; competition: GST-FAK-NT1 or GST-FAK beads and cell lysate with interfering FAK-derived peptide or vehicle (water), two hours at 4°C before overnight Akt1 incubation; the pair that is blocked; only the target purified
[2] = target: T1, GST-FAK Truncation 3 (human) (UniProt Q05397); experiment: pull-down; GST or GST-FAK fusion on glutathione-Sepharose 4B beads (30 μl) incubated with cell lysate (1500 μg protein) overnight at 4°C; eluate blotted for Akt1 and GST; only the target purified
T1 sequence: LAHPPEEWKYELRI

By UniProt entry, the sequences of proteins in these tests, tags left out.
UniProt P31749: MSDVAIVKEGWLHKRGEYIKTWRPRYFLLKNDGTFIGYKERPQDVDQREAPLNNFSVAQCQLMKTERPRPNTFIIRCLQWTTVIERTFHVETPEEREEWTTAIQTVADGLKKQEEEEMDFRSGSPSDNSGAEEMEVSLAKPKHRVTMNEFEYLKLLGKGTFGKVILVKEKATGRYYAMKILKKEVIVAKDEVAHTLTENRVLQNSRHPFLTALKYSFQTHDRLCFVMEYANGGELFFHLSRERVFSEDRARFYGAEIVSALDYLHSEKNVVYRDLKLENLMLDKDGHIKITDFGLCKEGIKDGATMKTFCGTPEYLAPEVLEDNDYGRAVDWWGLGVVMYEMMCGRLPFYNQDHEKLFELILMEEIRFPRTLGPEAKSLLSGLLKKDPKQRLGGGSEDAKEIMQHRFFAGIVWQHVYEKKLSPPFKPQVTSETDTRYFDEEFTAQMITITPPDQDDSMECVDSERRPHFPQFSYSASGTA

GST-FAK-NT1-2-2 (human) = target: T2, GST-FAK-NT1-2-2 (human) (UniProt Q05397); experiment: as above
T2 sequence: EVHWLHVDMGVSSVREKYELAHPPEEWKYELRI

[3] = target: T3, GST-FAK Truncation 2 (human) (UniProt Q05397); experiment: as above
T3 sequence: VSSVREKYELAHPPEE

[4] = target: T4, GST-FAK Truncation 1 (human) (UniProt Q05397); experiment: as above
T4 sequence: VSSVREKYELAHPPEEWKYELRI

[5] = target: T5, GST-FAK Truncation 4 (human); experiment: as above
T5 sequence: LAHPPEE

Measured: binding

endogenous Akt1 of SW620 cells (from UniProt P31749 1-480) (enzyme)
binds: all assays above
